For this assay, the target named is endogenous Pim1 of BMDMs (mouse (endogenous in BMDMs)) (UniProt P06803). Kind of assay: co-IP; endogenous proteins; BMDMs stimulated with LPS (100 ng ml^-1) for 1 h, immunoprecipitation with an anti-Pim1 antibody, immunoblot. (In general: A western blot detects proteins with antibodies after separation by electrophoresis.)

Chains of the proteins cited; added tags and fusions are not shown. Lines headed by an entry give the natural chain unless they say otherwise; changes in a name come on top.
UniProt P06803: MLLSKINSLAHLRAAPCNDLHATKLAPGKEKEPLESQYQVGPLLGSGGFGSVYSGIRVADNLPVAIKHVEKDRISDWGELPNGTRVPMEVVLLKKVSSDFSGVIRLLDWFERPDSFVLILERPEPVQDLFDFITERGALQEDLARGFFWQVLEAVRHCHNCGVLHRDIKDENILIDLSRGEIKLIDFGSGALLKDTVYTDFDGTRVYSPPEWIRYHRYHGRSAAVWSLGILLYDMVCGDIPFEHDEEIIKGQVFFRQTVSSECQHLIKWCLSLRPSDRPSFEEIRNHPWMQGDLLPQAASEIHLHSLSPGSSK
UniProt Q60803: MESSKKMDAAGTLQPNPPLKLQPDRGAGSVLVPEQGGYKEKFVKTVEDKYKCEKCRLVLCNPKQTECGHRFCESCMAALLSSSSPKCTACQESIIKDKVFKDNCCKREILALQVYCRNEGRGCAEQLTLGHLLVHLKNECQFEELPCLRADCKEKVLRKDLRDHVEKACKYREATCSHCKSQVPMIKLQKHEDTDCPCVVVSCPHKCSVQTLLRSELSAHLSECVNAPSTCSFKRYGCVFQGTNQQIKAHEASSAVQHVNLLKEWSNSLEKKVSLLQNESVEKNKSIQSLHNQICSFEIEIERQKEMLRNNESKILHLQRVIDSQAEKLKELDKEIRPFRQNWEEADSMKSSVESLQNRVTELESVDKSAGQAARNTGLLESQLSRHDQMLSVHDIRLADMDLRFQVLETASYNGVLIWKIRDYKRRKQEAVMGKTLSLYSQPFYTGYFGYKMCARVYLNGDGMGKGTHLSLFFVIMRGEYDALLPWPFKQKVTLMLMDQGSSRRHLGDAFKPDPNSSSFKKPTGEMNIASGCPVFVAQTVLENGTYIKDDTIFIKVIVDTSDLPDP

No constants are given. Whether binding was seen depends on the method and setting. Binding seen in cells or lysates may run through a third protein. Binding can be weak; no strength is given.

In the case of “endogenous TRAF3 of BMDMs (from UniProt Q60803 1-567)”, the binding entry was “binds”.

The values above are taken from publication PMC9722908.
